Laboratory results as given in PMC9042636.
No constants are given. Whether binding was seen depends on the method and setting. Binding seen in cells or lysates may run through a third protein. Some binding calls cover weakened binding; strength is not graded here.

By UniProt entry, the sequences of proteins in these tests, tags left out.
UniProt P27986: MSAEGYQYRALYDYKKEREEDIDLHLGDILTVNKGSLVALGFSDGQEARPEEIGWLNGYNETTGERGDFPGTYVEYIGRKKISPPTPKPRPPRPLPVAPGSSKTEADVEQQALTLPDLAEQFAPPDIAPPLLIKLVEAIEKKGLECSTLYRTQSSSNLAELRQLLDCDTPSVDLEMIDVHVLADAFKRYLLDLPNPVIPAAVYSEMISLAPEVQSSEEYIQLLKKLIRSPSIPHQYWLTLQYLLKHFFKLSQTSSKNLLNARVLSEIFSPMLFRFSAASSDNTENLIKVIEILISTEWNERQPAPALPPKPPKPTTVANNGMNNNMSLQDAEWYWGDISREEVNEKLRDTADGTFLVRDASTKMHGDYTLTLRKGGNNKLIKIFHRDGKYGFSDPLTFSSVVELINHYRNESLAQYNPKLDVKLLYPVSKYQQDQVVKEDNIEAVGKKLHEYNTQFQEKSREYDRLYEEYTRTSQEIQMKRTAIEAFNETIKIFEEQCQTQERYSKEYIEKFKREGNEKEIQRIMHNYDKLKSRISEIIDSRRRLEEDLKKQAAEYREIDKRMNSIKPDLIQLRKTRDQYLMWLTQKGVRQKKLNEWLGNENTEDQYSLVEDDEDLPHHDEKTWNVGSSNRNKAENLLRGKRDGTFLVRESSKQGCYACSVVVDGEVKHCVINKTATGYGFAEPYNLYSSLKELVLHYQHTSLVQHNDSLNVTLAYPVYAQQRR

Molecular target: T1, Regulator of G protein signaling 20 (RGS20) (human (endogenous in Penl1 and 149RM)) (UniProt O76081)
T1 sequence: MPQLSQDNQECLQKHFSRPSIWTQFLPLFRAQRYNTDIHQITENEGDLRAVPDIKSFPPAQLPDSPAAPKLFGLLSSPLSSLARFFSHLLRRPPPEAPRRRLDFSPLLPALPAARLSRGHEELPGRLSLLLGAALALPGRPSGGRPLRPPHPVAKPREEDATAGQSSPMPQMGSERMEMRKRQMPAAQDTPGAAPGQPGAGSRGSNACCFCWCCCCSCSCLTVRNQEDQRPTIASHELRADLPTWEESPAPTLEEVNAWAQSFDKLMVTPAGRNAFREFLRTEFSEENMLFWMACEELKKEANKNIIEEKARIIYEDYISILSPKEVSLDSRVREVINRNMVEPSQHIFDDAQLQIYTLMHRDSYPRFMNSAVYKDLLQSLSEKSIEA
Experiment: co-IP; RGS20 immunoprecipitated with a rabbit anti-RGS20 antibody, captured by Protein G Dynabeads; immunoprecipitates analysed by western blotting; Penl1 and 149RM cells; IgG as control

With “PI3K p85α subunit (from UniProt P27986 1-724)” as the substance, how does the binding read?
Its binding is “binds”.
